Results deposited as PubChem BioAssay AID1671195 (Yale University, 2021).
Purpose: 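Knockdowns that increase or decrease uptake of fluorescent LDL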 (primary screen). System: human Huh7 hepatoma cells. Reagents: siRNA pool against human genes, 18 nM. Timing: about 2 to 2.5 days of knockdown, then 8 h LDL uptake. Challenge: DiI-labelled LDL at 30 µg/ml for 8 h, in lipoprotein-deficient serum medium. Detection: 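Fluorescent LDL signal imaged in cells, scaled to the plate median, robust z-score for each replicate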. Direction: robust z-score: higher = more LDL uptake after knockdown. Rule for the call: 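a gene counts as active if at least two replicate z-scores exceed ±2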.
This is an unselected part of about 22,000 deposited reagents. In the full data, about 1,510 (6.9%) were called active. 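Active includes knockdowns raising or lowering LDL uptake; positive z-scores mean more uptake, negative mean less.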 Entries without a mark were called inactive. Reagent sequences are not shown.

gene symbol | robust z-score, replicate 1 | robust z-score, replicate 2 | robust z-score, replicate 3
A4GNT | -0.22 | -0.378 | -0.635
NBAS | -0.561 | -2.03 | -1.66
ATP13A1 | 1.49 | 1.86 | 2.51
LOC389338 (retired record) | -0.634 | -0.726 | -0.438
POU2AF1 | -0.345 | 2.06 | -0.215
CREB3 | 1.67 | 1.38 | 0.342
WTAP | 2.31 | 0.437 | -0.503
EDEM2 | -0.355 | 0.0481 | -1.02
LINC02783 | 1.28 | 1.31 | 1.56
OR1Q1 | 0.562 | 0.793 | 0.982
HSD11B1L | 1.04 | -0.649 | 0.0512
PNMA5 | 0.311 | -1.67 | -0.868
CYP27B1 | 2.71 (active) | 2.3 | 1.32
DRC10 | -0.308 | 0.106 | -0.337
TSLIG3B | 3.83 (active) | 4.28 | 4.02
SMARCB1 | -0.827 | -1.33 | -0.479
COMMD6 | 0.232 | -0.214 | 0.257
RAB23 | 0.00263 | -1.46 | -1.69
PTCRA | 0.128 | -0.124 | -0.0749
STAP1 | 1.97 | 0.149 | -0.301
FLJ46365 (retired record) | -1.96 | -1.95 | -1.82

Continued, starting with the last 2 of the part before.
gene symbol | robust z-score, replicate 1 | robust z-score, replicate 2 | robust z-score, replicate 3
STAP1 | 1.97 | 0.149 | -0.301
FLJ46365 (retired record) | -1.96 | -1.95 | -1.82
N4BP1 | 0.201 | 0.798 | -1.33
DNAJB5 | -0.351 | -0.225 | -0.633
ZSWIM5 | -0.956 (active) | -2 | -2.05
DHRSX | 1.96 | 1.29 | 1.95
CYSTM1 | -1.78 | -1.38 | -2.13
PDE4B | 0.603 | -1.64 | 0.595
GPR174 | -2.08 | 1.16 | 0.15
NKAIN4 | -0.0892 | 0.692 | 0.52
FNBP4 | -0.268 | -1.51 | -0.854
LOC442430 (retired record) | 2.11 | 1.85 | 1.96
KCNRG | 0.224 | -0.0961 | 0.147
GFRAL | -1.71 | -1.44 | -1.69
GLI3 | -0.676 | -0.12 | -0.333
TNFRSF14 | 1.02 | 0.656 | 0.197
LOC100287217 | -0.706 | 0.195 | -0.0737
PTTG2 | -0.602 | -1.57 | -0.151
DDIT3 | -0.555 | -1.95 | -0.671
KRT6C | 0.579 | 0.644 | 0.793
MCF2L2 | -1.93 (active) | -0.0684 | -2.02
MMP26 | -0.435 | -0.0864 | 1.22
RNF166 | -0.713 | -0.107 | -0.594
SRFBP1 | 0.549 | 0.594 | 0.941
NEIL2 | -0.294 | -0.143 | -0.214
LOC441477 (retired record) | 1.16 | 0.797 | 0.467
BCAT1 | -0.945 | -1.06 | -1.14
